Results: doi:10.1101/2021.12.08.471779
Positions count from the first letter of the chain named. Results are given in words; binding and its absence hold for the method and conditions named. In cells and extracts the contact can be indirect. Some results given as binding are weak or reduced against the parent protein; the word gives no strength.

Protein sequences, listed by entry. Tags and fused reporters are not part of them. Lines headed by an entry give the natural chain unless they say otherwise; changes in a name come on top.
UniProt P02929, whole entry, looked up, stated change not applied: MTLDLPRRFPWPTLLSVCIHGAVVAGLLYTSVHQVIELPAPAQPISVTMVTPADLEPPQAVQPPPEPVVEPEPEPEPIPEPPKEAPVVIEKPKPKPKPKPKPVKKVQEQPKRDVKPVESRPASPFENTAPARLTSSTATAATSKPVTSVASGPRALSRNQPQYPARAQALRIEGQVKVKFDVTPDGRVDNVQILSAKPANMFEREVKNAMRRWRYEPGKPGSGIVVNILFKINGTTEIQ

Columns and labels:
Assay in all cases: cross-linking
[1] = target: T1, FepA D356C (Escherichia coli K-12) (UniProt P05825)
T1 sequence: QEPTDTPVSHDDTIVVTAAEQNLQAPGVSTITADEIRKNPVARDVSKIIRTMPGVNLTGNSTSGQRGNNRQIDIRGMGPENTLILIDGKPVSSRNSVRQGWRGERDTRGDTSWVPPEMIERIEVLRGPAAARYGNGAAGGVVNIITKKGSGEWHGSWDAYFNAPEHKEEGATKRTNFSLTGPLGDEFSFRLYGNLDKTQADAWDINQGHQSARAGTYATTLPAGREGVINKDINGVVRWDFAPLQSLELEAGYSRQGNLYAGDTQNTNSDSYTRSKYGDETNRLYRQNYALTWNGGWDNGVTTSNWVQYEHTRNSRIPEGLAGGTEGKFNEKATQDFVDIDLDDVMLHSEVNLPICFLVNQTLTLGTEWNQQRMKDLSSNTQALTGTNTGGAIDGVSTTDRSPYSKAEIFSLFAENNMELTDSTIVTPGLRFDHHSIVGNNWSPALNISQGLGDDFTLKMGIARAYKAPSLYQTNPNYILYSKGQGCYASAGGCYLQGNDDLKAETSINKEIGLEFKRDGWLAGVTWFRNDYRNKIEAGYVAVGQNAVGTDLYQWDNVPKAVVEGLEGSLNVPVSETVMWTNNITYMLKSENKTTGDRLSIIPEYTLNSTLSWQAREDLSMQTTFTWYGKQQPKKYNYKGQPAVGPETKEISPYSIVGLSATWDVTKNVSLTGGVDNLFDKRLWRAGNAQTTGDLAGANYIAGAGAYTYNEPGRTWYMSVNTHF

[2] = target: T2, FepA L23C (Escherichia coli K-12) (UniProt P05825)
T2 sequence: T1 sequence with L23C, C356D

[3] = target: T3, FepA D664C (Escherichia coli K-12) (UniProt P05825)
T3 sequence: T1 sequence with C356D, D664C

| binding [1] | binding [2] | binding [3] | Substance |
| --- | --- | --- | --- |
| no binding | binds | no binding | TonB C18G Q160C (from UniProt P02929 1-239) |
| no binding | no binding | no binding | TonB C18G A209C (from UniProt P02929 1-239) |
| no binding | no binding | no binding | TonB C18G V206C (from UniProt P02929 1-239) |
|  | binds |  | TonB C18G R204C (from UniProt P02929 1-239) |
